These are yes or no findings as the source states them, for the method shown. For part of these data: In cells and extracts the contact can be indirect. Some binding calls cover weakened binding; strength is not graded here.

Chains of the proteins cited; added tags and fusions are not shown.
UniProt Q96SN8: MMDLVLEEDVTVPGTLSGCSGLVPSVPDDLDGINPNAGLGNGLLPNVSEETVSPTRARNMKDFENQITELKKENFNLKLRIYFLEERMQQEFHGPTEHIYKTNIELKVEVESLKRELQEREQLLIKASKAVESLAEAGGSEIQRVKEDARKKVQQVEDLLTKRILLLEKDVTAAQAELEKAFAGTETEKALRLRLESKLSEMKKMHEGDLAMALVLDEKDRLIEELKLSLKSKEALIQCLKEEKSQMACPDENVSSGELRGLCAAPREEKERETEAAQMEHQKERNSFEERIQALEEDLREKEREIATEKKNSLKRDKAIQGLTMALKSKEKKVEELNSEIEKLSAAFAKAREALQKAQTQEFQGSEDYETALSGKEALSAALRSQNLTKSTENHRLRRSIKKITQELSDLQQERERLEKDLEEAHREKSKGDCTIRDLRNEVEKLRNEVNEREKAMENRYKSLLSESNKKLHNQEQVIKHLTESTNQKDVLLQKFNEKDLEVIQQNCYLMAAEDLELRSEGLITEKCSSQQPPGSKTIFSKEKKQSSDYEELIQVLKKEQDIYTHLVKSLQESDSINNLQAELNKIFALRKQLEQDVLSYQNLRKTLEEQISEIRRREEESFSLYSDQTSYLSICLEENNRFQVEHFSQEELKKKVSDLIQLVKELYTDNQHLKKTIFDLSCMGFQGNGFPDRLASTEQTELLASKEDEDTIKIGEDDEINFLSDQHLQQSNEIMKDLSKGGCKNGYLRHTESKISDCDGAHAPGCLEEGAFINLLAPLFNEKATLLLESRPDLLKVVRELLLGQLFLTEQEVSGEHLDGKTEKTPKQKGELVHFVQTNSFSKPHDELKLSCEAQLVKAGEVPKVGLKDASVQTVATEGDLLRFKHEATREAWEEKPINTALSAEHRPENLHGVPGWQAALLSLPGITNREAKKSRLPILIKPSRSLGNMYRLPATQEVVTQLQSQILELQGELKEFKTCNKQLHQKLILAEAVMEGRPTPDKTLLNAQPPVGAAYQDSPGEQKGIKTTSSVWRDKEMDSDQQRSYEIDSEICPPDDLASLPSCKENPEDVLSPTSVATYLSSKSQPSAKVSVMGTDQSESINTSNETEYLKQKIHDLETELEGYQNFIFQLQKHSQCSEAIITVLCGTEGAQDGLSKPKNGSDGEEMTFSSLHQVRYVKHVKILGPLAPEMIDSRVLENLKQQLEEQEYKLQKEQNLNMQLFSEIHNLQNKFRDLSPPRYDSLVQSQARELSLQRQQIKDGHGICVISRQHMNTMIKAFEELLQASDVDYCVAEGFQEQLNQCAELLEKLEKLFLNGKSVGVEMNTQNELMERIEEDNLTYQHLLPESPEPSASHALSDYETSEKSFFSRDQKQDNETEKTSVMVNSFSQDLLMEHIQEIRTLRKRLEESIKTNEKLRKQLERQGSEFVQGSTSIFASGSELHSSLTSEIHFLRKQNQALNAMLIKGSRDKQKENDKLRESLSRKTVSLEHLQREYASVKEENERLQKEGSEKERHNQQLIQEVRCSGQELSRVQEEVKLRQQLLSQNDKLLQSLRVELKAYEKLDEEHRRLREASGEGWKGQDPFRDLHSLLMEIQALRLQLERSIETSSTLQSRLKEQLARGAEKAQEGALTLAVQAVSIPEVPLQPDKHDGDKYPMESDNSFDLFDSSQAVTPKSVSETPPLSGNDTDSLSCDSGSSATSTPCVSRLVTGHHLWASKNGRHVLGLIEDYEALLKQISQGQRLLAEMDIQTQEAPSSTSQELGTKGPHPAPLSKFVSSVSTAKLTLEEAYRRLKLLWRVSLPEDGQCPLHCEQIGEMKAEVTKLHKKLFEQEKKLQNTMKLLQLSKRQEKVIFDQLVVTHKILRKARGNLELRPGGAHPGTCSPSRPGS
UniProt P49841: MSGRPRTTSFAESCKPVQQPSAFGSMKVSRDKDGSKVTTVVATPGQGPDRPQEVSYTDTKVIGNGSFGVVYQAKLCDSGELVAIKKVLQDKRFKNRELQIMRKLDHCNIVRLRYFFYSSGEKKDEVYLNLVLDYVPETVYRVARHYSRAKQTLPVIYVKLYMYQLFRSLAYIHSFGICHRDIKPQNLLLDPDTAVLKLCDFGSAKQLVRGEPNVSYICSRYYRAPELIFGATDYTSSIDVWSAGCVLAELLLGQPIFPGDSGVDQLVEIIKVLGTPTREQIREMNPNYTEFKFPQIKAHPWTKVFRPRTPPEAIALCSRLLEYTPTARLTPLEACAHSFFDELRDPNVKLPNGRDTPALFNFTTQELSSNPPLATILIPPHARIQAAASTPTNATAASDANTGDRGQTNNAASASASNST

The record followed here is publication PMC8688469.

The target in experiment [1] is Myc-tagged CDK5RAP2 (UniProt Q96SN8). Put plainly: co-IP; lysates of cells co-transfected with Myc-CDK5RAP2 and FLAG-GSK3β; IP with Myc or FLAG antibody on protein A/G agarose beads, overnight at 4 °C; lysis and wash buffer 50 mM Tris pH 8.0, 150 mM NaCl, 1% NP-40, 10 mM EDTA, 5% glycerol; both IPs blotted with Myc and FLAG antibodies.
Experiment [2] deals with GST-CDK5RAP2 (UniProt Q96SN8). Put plainly: pull-down; GST-CDK5RAP2 (1 μmole) bound to glutathione-agarose beads mixed with GSK3β (2 μg) at 4 °C for 2 h; washed 4 times with 20 mM Tris-HCl pH 8.0, 200 mM NaCl, 1 mM EDTA, 0.5% NP-40; blots for GST and GSK3β; both purified.
The target in experiment [3] is FLAG-tagged GSK3β (UniProt P49841). Put plainly: co-IP; lysates of cells co-transfected with Myc-CDK5RAP2 and FLAG-GSK3β; IP with Myc or FLAG antibody on protein A/G agarose beads, overnight at 4 °C; lysis and wash buffer 50 mM Tris pH 8.0, 150 mM NaCl, 1% NP-40, 10 mM EDTA, 5% glycerol; both IPs blotted with Myc and FLAG antibodies.

With “FLAG-tagged GSK3β (from UniProt P49841 1-420) (enzyme)”, the binding entry in experiment [1] is on record as “binds”.
Turning to “GSK3β protein (14-306) (from UniProt P49841 1-420) (enzyme)”, the binding result in experiment [2] is “binds”.
As for “Myc-tagged CDK5RAP2 (from UniProt Q96SN8 1-1893)”, the binding result in experiment [3] is listed as “binds”.
